Laboratory results: PubChem BioAssay AID602196 (INSERM, 2012)
Test: 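Knock-downs that protect lung cancer cells from cisplatin or sensitise them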. Cells: human A549 lung cancer cells. Reagents: siRNA pair against human genes. Time to read-out: 48 h transfection before cisplatin; time from cisplatin to read-out not stated. Conditions: cisplatin at a dose killing half of control-siRNA cells; exact dose and duration not given. Measurement: 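Cisplatin cell death as a shift from the 50% death seen with control siRNA; siRNAs toxic or growth-blocking alone scored 0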. Scale: two-siRNA summed score (-2 to +2): higher = both siRNAs protect from cisplatin killing; -2 means both sensitise; mean protection from cisplatin (shift in death): higher = protection from cisplatin killing. Active means: 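Each siRNA scores 0 if harmful alone by LDH or WST-1, otherwise +1 if it reduces and -1 if it increases cisplatin killing; a gene is active when both siRNAs agree (sum +2 or -2)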. Meaning of the calls: active = both siRNAs shift cisplatin killing the same way; inactive = no consistent shift, or siRNA harmful alone.
Shown is one part, drawn at random, of about 23,000 deposited reagents. Of all reagents, 455 (2%) got an active call. 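Active includes both protection and sensitisation; some change values fall well beyond the stated -50 to +50 range.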 A number with no mark means an inactive call. Not all columns of the deposit are shown. Not stated in the record: the amount of reagent.

The opening 8 records, ahead of the listing:
target | two-siRNA summed score (-2 to +2) | mean protection from cisplatin (shift in death) (%)
ASB17 (ankyrin repeat and SOCS box containing 17) | 0 | 8.4
KDM3B (lysine demethylase 3B) | 1 | 15.5
EXOSC5 (exosome component 5) | -1 | -16.1
LOC401059 | 0 | 1.4
C1orf116 (chromosome 1 open reading frame 116) | 0 | -2.6
LINC00839 (long independently transcribed non-coding RNA 839) | 0 | 2.6
LAMB3 (laminin subunit beta 3) | 0 | 11.5
TRIM21 (tripartite motif containing 21) | 0 | 22.4

The list itself, from the first entry:
target | two-siRNA summed score (-2 to +2) | mean protection from cisplatin (shift in death) (%)
ASB17 (ankyrin repeat and SOCS box containing 17) | 0 | 8.4
KDM3B (lysine demethylase 3B) | 1 | 15.5
EXOSC5 (exosome component 5) | -1 | -16.1
LOC401059 | 0 | 1.4
C1orf116 (chromosome 1 open reading frame 116) | 0 | -2.6
LINC00839 (long independently transcribed non-coding RNA 839) | 0 | 2.6
LAMB3 (laminin subunit beta 3) | 0 | 11.5
TRIM21 (tripartite motif containing 21) | 0 | 22.4
SULT4A1 (sulfotransferase family 4A member 1) | 1 | 10
PDHA1 (pyruvate dehydrogenase E1 subunit alpha 1) | -1 | -26.5
LOC387897 | 0 | 1.6
GRIN3B (glutamate ionotropic receptor NMDA type subunit 3B) | 0 | 12.7
RAB27B (RAB27B, member RAS oncogene family) | 0 | 4.9
MAZ (MYC associated zinc finger protein) | 1 | 16
RAN (RAN, member RAS oncogene family) | 0 | -10.2
OXA1L (OXA1L mitochondrial inner membrane insertase) | 0 | 18.7
PAQR5 (progestin and adipoQ receptor family member 5) | 0 | 34.3
LOC442145 | 1 | 16.8
SIRT1 (sirtuin 1) | 0 | -6.3
AGK (acylglycerol kinase) | 0 | 4.3
RPP21 (ribonuclease P subunit p21) | -1 | -11.5
CHTOP (chromatin target of PRMT1) | 0 | 6.2
PGBD4 (piggyBac transposable element derived 4) | 0 | 0.4
GJC3 (gap junction protein gamma 3) | 1 | 14.7
SPOCK3 | 0 | 5.3
NELL1 (neural EGFL like 1) | 0 | 10.5
SPIRE2 (spire type actin nucleation factor 2) | 0 | 12.1
USP14 (ubiquitin specific peptidase 14) | 0 | 0.8
ALDH6A1 (aldehyde dehydrogenase 6 family member A1) | -1 | -12.9
IYD (iodotyrosine deiodinase) | 0 | 5
GULP1 (GULP PTB domain containing engulfment adaptor 1) | 0 | -29.4
ZIC3 (Zic family zinc finger 3) | 0 | -9.2
SEPSECS | 0 | 5
NGB (neuroglobin) | 0 | -3.8
LOC440853 | 0 | 5.8
TIAL1 (TIA1 cytotoxic granule associated RNA binding protein like 1) | 0 | -0.5
KCNK16 (potassium two pore domain channel subfamily K member 16) | 1 | 48.6
KCNH2 (potassium voltage-gated channel subfamily H member 2) | 0 | 4.4
MTFR2 (mitochondrial fission regulator 2) | 0 | 4.3
AADACP1 (arylacetamide deacetylase pseudogene 1) | 1 | 11.7
HPSE (heparanase) | 0 | 15
PLEKHG6 (pleckstrin homology and RhoGEF domain containing G6) | 0 | -5.1
RAB32 (RAB32, member RAS oncogene family) | 0 | -18.1
FLJ38564 | 0 | 4.3
MDH1B (malate dehydrogenase 1B) | 0 | 4.3
LARS1 (leucyl-tRNA synthetase 1) | 0 | -3
TIMM10 (translocase of inner mitochondrial membrane 10) | 0 | -0.4
CEMIP2 (cell migration inducing hyaluronidase 2) | 0 | 3.4
KCNJ13 (potassium inwardly rectifying channel subfamily J member 13) | 0 | 6.4
TLR7 (toll like receptor 7) | 0 | -7.8
EXOC5 (exocyst complex component 5) | 0 | 6.9
LOC345829 | 0 | -2.4
LINC02656 (long independently transcribed non-coding RNA 2656) | 0 | 4.3
HK3 (hexokinase 3) | 1 | 11.6
PDE4DIP (phosphodiesterase 4D interacting protein) | 0 | 17.9
RMDN1 (regulator of microtubule dynamics 1) | 0 | 3.2
LOC400849 | 0 | 11.7
FLJ43859 | 0 | 10.5
NIT1 (nitrilase 1) | 0 | 2.6
ZNF839 (zinc finger protein 839) | 0 | 1.3
TOB1-AS1 (TOB1 antisense RNA 1) | 0 | 0.3
ZNF420 (zinc finger protein 420) | 0 | -11.8
TBX2 (T-box transcription factor 2) | 0 | -7.8
PALS1 (protein associated with LIN7 1, MAGUK p55 family member) | 0 | 4
BAIAP2-DT (BAIAP2 divergent transcript) | 0 | 11.6
IQCE (IQ motif containing E) | 0 | 5.1
TPO (thyroid peroxidase) | 0 | 5.7
PLK3 (polo like kinase 3) | 1 | 20.6
LOC440235 | 0 | 5.5
IL21R (interleukin 21 receptor) | 0 | -9.5
LOC130106 | 0 | 11.9
KRT80 (keratin 80) | 0 | 8.5
LOC400730 | 1 | 4.3
